Assays:
calf thymus DNA [1] = assay: Fluorescence quantum yields in the absence and presence of calf thymus DNA in buffer solution; format: physicochemical; conditions: pH 7.4, 10 mM Tris-HCl buffer; dye 1 μM; calf thymus DNA 100 μM; Rhodamine B as standard
calf thymus DNA [2] = assay: Fluorescence emission spectra in the absence and presence of calf thymus DNA in buffer solution; format: binding; conditions: dye 1 μM; for relative fluorescence intensity I in the presence of calf thymus DNA: calf thymus DNA 100 μM
Method: FIG. 1 is the comparison of fluorescence emission spectra of compound A with commercially available dye EB in the absence and presence of calf thymus DNA respectively in pH 7.36, 10 mM Tris-HCl buffer. The abscissa is wavelength (nm) and the ordinate is the relative fluorescence intensity. The equipments used are a UV-Vis spectrophotometer (Hp8453) and a spectrofluorophotometer (FP-6500). The concentrations of compound A, EB and calf thymus DNA are 1 μM, 1 μM and 100 μM respectively.
FIG. 2 is the comparison of fluorescence emission spectra of compound B with commercially available dye EB in the absence and presence of calf thymus DNA respectively in pH 7.4, 10 mM Tris-HCl buffer. The abscissa is wavelength (nm) and the ordinate is the relative fluorescence intensity. The equipments used are a UV-Vis spectrophotometer (Hp8453) and a spectrofluorophotometer (FP-6500). The concentrations of compound B, EB and calf thymus DNA are 1 μM, 1 μM and 100 μM, respectively.
FIG. 3 is the comparison of fluorescence emission spectra of compound C with commercially available dye EB in the absence and presence of calf thymus DNA respectively in pH 7.24, 10 mM Tris-HCl buffer. The abscissa is wavelength (nm) and the ordinate is the relative fluorescence intensity. The equipments used are a UV-Vis spectrophotometer (Hp8453) and a spectrofluorophotometer (FP-6500). The concentrations of compound C, EB and calf thymus DNA are 1 μM, 1 μM and 100 μM, respectively.
Determinations of the fluorescence emission spectra of compound A and commercially available dye EB in the absence and presence of calf thymus DNA respectively in buffer solution
(§1) Solutions of compound A in DMSO and EB in water are separately prepared with the concentrations of 1 mM. 3 μL of each solution is diluted with 10 mM Tris-HCl buffer solution (pH 7.36) to 3 mL in a cuvette to determine its fluorescence intensity. Solution of calf thymus DNA in water is prepared, whose concentration is determined as 1.5 mM by the adsorption at 260 nm in spectrophotometry (using the molar absorption coefficients of ε260 nm=6600 M^−1 cm^−1). Besides, another 3 μL of each solution of compound A and EB mentioned above is added into a cuvette, then 200 μL of solution of calf thymus DNA is dropped into each cuvette. Finally each mixture of dyes and calf thymus DNA solution is diluted with pH 7.36, 10 mM Tris-HCl buffer solution to 3 mL and the fluorescence emission spectra are determined respectively after stabilization. […] The equipments used are a UV-Vis spectrophotometer (Hp8453) and a spectrofluorophotometer (FP-6500). The concentrations of compound A and EB are both 1 μM, the concentration of calf thymus DNA is 100 μM.
Determinations of the fluorescence emission spectra of compound B and commercially available dye EB in the absence and presence of calf thymus DNA respectively in buffer solution
as §1, with “compound B” for “compound A”, “(pH 7.4)” for “(pH 7.36)”, “pH 7.4,” for “pH 7.36,”, “μM. […]” for “μM.”

CCN1C=C/C(=C\C=C\c2sc3ccccc3[n+]2CC)c2ccccc21 [M1, reference compound]
fluorescence quantum yield φF upon binding to calf thymus DNA (calf thymus DNA [1]): 0.26

CCN1C=C/C(=C\C=C\c2sc3ccccc3[n+]2CCCC[N+](CC)(CC)CC)c2ccccc21 [M2]
fluorescence quantum yield φF upon binding to calf thymus DNA (calf thymus DNA [1]): 0.35

CCN(CC)CCCC[n+]1c(/C=C/C=C2\C=CN(CC)c3ccccc32)sc2ccccc21.[I-] [compound A]
relative fluorescence intensity I0 in the absence of calf thymus DNA (calf thymus DNA [2]; pH 7.36, 10 mM Tris-HCl buffer): 6.25
relative fluorescence intensity I in the presence of calf thymus DNA (calf thymus DNA [2]; pH 7.36, 10 mM Tris-HCl buffer): 345.3
fluorescence quantum yield φF upon binding to calf thymus DNA (calf thymus DNA [1]): 0.36

COc1ccc2c(c1)oc(/C=C/C=C1\C=CN(CCCN3CCCCC3)c3ccccc31)[n+]2CCCN1CCCCC1.[Br-] [compound B]
relative fluorescence intensity I0 in the absence of calf thymus DNA (calf thymus DNA [2]; pH 7.4, 10 mM Tris-HCl buffer): 2.28
relative fluorescence intensity I in the presence of calf thymus DNA (calf thymus DNA [2]; pH 7.4, 10 mM Tris-HCl buffer): 203.3

NCCNCCC[n+]1c(/C=C/C=C2\C=CN(CCO)c3ccccc32)sc2ccccc21 [compound C]
relative fluorescence intensity I0 in the absence of calf thymus DNA (calf thymus DNA [2]; pH 7.24, 10 mM Tris-HCl buffer): 3.65
relative fluorescence intensity I in the presence of calf thymus DNA (calf thymus DNA [2]; pH 7.24, 10 mM Tris-HCl buffer): 274.5
